Test results reported in the supplement of paper PMC10849652.
Some of the results follow. Residues, ends and D or L forms follow the SMILES beside them. *: point of attachment. Cbz = O=C(OCc1ccccc1)*

By UniProt entry, the sequences of proteins in these tests, tags left out. Where a name states a change or a piece, a line headed by the entry shows the natural chain unless it says otherwise.
UniProt Q9NV56, whole entry, looked up: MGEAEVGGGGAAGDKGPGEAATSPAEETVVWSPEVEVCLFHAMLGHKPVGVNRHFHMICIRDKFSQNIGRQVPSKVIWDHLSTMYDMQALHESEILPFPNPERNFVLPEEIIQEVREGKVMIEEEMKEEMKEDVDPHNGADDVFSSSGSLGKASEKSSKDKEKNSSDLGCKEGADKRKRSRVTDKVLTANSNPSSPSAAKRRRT
UniProt Q96EN8: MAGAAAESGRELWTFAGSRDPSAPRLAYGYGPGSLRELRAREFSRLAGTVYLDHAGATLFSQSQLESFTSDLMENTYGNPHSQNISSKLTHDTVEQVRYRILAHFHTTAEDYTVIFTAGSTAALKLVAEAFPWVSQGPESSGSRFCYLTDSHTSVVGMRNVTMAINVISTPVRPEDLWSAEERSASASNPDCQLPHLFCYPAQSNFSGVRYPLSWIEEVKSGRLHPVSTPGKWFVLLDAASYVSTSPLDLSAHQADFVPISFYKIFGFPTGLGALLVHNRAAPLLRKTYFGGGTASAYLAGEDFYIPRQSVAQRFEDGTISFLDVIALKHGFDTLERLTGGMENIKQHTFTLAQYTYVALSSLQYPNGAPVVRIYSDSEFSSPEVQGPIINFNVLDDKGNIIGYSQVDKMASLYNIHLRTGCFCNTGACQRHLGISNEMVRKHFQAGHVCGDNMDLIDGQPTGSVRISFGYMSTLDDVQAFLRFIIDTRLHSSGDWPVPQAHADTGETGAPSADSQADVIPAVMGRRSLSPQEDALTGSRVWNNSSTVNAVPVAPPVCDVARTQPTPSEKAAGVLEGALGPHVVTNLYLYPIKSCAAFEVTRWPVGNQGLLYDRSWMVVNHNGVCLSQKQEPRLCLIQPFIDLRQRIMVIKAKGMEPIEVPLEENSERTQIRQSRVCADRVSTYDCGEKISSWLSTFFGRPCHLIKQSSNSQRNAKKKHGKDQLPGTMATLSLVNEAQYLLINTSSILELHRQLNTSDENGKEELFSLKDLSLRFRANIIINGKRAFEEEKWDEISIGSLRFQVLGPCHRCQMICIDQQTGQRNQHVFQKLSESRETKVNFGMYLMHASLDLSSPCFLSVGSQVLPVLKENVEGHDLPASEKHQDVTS
UniProt P46013: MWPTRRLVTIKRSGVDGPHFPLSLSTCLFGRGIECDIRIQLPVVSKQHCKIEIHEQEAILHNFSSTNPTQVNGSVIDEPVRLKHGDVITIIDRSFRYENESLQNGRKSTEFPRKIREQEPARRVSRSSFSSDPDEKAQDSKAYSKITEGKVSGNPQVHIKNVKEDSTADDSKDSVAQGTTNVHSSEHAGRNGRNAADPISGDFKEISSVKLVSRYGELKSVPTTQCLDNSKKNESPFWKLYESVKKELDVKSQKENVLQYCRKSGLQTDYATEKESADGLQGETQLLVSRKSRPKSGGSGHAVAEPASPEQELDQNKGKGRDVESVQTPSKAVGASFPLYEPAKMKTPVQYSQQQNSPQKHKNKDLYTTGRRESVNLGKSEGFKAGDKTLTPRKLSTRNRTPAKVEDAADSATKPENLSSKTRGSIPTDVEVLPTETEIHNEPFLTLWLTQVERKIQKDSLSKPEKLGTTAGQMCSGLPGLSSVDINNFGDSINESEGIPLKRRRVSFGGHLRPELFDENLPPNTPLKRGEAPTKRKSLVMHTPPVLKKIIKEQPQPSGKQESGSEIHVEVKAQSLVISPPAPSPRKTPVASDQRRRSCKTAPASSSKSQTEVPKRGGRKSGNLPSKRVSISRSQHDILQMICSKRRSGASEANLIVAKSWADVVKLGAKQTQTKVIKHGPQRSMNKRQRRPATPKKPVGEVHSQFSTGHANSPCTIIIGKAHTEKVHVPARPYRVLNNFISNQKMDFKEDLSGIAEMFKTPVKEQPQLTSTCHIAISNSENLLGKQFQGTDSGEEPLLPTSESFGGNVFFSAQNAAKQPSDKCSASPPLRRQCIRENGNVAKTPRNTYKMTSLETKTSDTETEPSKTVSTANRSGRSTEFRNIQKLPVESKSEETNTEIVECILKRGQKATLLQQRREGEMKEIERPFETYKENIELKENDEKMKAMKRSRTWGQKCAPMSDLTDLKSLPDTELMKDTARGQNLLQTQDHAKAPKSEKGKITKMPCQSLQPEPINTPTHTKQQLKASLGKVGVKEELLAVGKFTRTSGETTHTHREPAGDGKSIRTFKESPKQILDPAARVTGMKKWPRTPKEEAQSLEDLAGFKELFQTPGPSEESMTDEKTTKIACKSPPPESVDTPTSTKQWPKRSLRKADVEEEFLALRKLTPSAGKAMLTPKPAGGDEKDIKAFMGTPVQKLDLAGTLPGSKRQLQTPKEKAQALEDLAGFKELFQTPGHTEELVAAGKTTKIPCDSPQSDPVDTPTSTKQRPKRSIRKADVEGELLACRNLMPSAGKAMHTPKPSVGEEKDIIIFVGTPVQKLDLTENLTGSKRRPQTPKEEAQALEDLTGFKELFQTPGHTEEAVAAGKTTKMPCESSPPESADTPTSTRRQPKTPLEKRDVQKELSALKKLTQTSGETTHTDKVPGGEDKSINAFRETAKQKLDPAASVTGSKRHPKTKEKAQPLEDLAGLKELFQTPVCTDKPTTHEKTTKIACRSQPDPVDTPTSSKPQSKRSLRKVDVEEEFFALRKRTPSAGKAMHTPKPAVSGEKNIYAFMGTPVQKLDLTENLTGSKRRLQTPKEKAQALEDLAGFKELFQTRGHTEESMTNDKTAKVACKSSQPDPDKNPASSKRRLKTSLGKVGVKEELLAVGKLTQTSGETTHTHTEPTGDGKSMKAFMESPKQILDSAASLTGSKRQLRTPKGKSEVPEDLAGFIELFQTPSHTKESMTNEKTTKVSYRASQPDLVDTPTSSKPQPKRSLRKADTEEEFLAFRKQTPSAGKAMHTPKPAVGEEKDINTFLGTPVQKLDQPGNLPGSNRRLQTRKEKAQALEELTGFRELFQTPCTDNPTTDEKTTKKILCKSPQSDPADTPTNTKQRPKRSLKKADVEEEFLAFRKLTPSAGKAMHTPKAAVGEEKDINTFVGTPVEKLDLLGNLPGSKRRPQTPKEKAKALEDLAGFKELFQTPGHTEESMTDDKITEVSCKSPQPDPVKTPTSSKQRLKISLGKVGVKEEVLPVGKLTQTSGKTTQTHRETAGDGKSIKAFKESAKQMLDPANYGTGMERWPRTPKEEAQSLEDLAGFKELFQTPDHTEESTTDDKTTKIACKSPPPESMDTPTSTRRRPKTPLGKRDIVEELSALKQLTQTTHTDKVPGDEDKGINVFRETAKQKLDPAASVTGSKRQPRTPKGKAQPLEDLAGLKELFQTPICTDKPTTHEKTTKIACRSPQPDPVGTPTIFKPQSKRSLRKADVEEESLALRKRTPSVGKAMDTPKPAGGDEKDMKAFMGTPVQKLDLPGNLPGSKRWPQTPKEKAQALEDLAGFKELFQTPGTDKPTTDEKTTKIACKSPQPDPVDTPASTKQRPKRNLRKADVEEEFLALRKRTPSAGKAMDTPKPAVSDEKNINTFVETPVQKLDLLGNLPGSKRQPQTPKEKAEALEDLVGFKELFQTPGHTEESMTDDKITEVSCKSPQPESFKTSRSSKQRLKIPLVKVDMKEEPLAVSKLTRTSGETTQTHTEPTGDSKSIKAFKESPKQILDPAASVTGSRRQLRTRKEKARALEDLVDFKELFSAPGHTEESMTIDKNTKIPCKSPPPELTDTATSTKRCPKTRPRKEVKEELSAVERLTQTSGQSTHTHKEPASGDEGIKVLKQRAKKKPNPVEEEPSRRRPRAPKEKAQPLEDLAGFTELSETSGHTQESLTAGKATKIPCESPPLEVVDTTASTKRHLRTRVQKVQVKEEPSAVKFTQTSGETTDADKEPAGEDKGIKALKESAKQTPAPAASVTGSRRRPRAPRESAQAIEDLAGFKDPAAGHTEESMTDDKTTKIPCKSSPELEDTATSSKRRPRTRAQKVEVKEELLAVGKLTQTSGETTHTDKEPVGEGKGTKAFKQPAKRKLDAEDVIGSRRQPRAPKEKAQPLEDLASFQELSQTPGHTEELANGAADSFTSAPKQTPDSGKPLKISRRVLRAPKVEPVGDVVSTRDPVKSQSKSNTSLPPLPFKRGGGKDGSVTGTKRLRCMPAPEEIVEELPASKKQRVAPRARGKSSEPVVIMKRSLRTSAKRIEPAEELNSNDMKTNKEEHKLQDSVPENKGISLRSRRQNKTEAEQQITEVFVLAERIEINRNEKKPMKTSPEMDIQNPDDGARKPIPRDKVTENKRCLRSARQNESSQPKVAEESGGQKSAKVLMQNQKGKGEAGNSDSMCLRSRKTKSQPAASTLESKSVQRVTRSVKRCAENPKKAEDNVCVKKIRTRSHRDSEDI
UniProt Q96EY8: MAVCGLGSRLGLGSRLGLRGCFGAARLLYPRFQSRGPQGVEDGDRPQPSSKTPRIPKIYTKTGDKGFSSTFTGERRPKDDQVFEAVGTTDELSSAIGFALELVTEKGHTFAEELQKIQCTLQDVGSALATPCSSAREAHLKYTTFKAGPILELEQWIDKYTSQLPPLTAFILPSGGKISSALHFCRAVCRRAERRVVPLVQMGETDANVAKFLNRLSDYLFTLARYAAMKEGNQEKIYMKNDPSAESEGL
UniProt P34949: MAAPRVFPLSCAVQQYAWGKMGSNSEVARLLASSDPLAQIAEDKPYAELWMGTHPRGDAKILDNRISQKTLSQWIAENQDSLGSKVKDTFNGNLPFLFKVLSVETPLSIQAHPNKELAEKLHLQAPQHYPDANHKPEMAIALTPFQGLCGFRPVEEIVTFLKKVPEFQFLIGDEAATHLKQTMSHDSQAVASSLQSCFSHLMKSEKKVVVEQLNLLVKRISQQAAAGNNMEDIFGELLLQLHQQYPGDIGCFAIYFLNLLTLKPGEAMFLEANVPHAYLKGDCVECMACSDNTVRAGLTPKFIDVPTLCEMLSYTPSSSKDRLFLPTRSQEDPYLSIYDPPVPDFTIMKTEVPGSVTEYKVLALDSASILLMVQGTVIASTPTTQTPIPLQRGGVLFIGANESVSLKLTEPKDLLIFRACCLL
UniProt Q14165: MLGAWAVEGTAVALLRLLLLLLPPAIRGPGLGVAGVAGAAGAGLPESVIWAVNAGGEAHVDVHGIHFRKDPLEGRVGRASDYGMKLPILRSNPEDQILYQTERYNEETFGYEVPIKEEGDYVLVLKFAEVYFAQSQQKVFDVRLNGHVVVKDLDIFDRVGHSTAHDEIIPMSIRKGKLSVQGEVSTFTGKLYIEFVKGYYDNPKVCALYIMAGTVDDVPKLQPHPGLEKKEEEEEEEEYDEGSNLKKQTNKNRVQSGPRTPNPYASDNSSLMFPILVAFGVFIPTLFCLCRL
UniProt O95563: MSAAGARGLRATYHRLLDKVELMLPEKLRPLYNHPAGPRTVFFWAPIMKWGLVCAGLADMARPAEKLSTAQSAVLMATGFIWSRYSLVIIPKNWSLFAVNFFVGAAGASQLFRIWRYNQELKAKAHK
UniProt Q9BRT3: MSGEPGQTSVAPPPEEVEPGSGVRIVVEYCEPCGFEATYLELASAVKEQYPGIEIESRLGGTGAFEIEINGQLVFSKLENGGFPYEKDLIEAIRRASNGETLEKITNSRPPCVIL
UniProt Q5XKP0: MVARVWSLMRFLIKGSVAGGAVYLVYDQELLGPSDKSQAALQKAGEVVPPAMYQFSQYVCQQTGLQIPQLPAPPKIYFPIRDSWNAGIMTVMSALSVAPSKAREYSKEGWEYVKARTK

Tests used:
Test in all cases: log2 fold change, soluble protein after heating vs DMSO (PISA); higher = thermal stabilisation; K562 cells, 10 uM, 30 min; active = over 0.2 and 3.5 SD of the protein, either way, in both replicates (recomputed)
[1] = compound: C#Cc1cccc(Nc2ncnc3cc(OCCOC)c(OCCOC)cc23)c1 [erlotinib]
Method in brief: (§1)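 K562 cells at 2×10^6 cells/mL were treated with 10 μM compound for 30 min. Aliquots were heated for 3 min across 48°C-58°C, pooled, and extracted in PBS with 0.5% NP-40 at 4°C; soluble protein was the supernatant after 21,000xg for 90 min. Soluble protein was quantified by TMTpro 16plex LC-MS/MS with channel sums equalised, and reported as log2 fold change in thermal stability against DMSO controls, with values from duplicates.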

[2] = compound: C/C(=N\NC(=O)C1=CC(=CC=C1)S(=O)(=O)N2CCOCC2)/C3=C(C=CC(=C3)Cl)O
Method in brief: as §1

[3] = compound: C1=CC(=C(C=C1Cl)C2=NC3=NC=CN=C3C(=N2)NC4=CC=NC=C4)F
Method in brief: as §1

[4] = compound: C1=CC(=CC=C1C2=NC3=C(N2)C=C(C=C3)C(=O)N)OC4=CC=C(C=C4)Cl
Method in brief: as §1

[5] = compound: C1=CC2=C(C=CC(=C2)/C=C\3/C(=O)NC(=NCC4=CC=CS4)S3)N=C1
Method in brief: as §1

[6] = compound: C1=CC2=NC=CN=C2C=C1/C=C/3\C(=O)NC(=O)S3
Method in brief: as §1

[7] = compound: C1=CC=C(C=C1)C2=NC(=C(N2)C3=CC=NC=C3)C4=CC(=C(C=C4)Cl)O
Method in brief: as §1

[8] = compound: C1=CC=C2C(=C1)C3=NNC4=CC=CC(=C43)C2=O
Method in brief: as §1

[9] = compound: C1CCN(C1)C(=O)NC2=CC=CC(=C2)NC3=NC=C(C(=N3)NCCC4=CN=CN4)Br
Method in brief: as §1

[10] = compound: C1CN(CCC1(CC2=CC=C(C=C2)Cl)N)C3=NC=NC4=C3C=CN4
Method in brief: as §1

[11] = compound: C1COCCN1CCN2C3=CC=CC=C3N=C2NC(=O)C4=CC(=CC=C4)[N+](=O)[O-] [IRAK-1-4 Inhibitor I]
Method in brief: as §1

[12] = compound: C=CC(=O)N1CCC[C@@H](n2nc(-c3ccc(Oc4ccccc4)cc3)c3c(N)ncnc32)C1 [ibrutinib]
Method in brief: as §1

[13] = compound: CC(=O)c1cnc2ccc(-c3cc(Cl)c(O)c(Cl)c3)nc2c1N[C@H]1CC[C@H](CN(C)C)CC1
Method in brief: as §1

[14] = compound: CC(C)(C)Cn1c(N)nc2ccc(-c3[nH]c(C(C)(C)C)nc3-c3ccc(F)cc3)nc21 [ralimetinib]
Method in brief: as §1

[15] = compound: CC(C)(O)CC(=O)NCCn1ccc2ncnc(Nc3ccc(Oc4cccc(C(F)(F)F)c4)c(Cl)c3)c21
Method in brief: as §1

[16] = compound: CC(C)C1=C2N=C(C=C(N2N=C1)NCC3=CC=CC=C3)NCCCCCCN
Method in brief: as §1

[17] = compound: CC(C)C[C@@H](C=O)NC(=O)[C@H](CC(C)C)NC(=O)[C@H](CC(C)C)NC(=O)OCc1ccccc1
Method in brief: as §1

[18] = compound: CC(C)N(C[C@H]1O[C@@H](n2cnc3c(N)ncnc32)[C@H](O)[C@@H]1O)[C@H]1C[C@@H](CCc2nc3cc(C(C)(C)C)ccc3[nH]2)C1 [pinometostat]
Method in brief: as §1

[19] = compound: CC1=C(C(CC(=O)N1)C2=CC=C(C=C2)C(F)(F)F)C(=O)NC3=C(C=C4C(=C3)C=NN4)F
Method in brief: as §1

[20] = compound: CC1=C(C2=C(C=C1)C(=O)C3=CC=CC=C3N2CCCN)C
Method in brief: as §1

Target | log2 fold change [1] | log2 fold change [2] | log2 fold change [3] | log2 fold change [4] | log2 fold change [5] | log2 fold change [6] | log2 fold change [7] | log2 fold change [8] | log2 fold change [9] | log2 fold change [10] | log2 fold change [11] | log2 fold change [12] | log2 fold change [13] | log2 fold change [14] | log2 fold change [15] | log2 fold change [16] | log2 fold change [17] | log2 fold change [18] | log2 fold change [19] | log2 fold change [20]
MRGBP (UniProt Q9NV56) | inactive: -0.052 | inactive: 0.003 | inactive: 0.022 | inactive: 0.014 | inactive: -0.036 | inactive: -0.03 | inactive: -0.012 | inactive: -0.074 | inactive: 0.003 | inactive: 0.042 | inactive: 0.03 | inactive: -0.01 | inactive: -0.017 | inactive: 0.067 | inactive: 0.009 | inactive: -0.047 | inactive: 0.008 | inactive: -0.032 | inactive: 0.052 | inactive: -0.092
MRPL1 (UniProt Q9BYD6) | inactive: -0.057 | inactive: -0.138 | inactive: -0.193 | inactive: 0.032 | inactive: -0.083 | inactive: -0.003 | inactive: 0.012 | inactive: 0.086 | inactive: -0.012 | inactive: -0.258 | inactive: -0.09 | inactive: 0.014 | inactive: 0.058 | inactive: 0.032 | inactive: 0.047 | inactive: -0.077 | inactive: 0.356 | inactive: 0.111 | inactive: 0.001 | inactive: -0.236
MOCOS (UniProt Q96EN8) | inactive: 0 | inactive: 0.037 | inactive: -0.044 | inactive: 0.051 | inactive: -0.049 | inactive: 0.028 | inactive: 0.023 | inactive: -0.016 | inactive: 0.029 | inactive: 0.016 | inactive: 0.039 | inactive: 0.031 | inactive: 0.003 | inactive: -0.074 | inactive: -0.036 | inactive: 0.076 | inactive: 0.072 | inactive: 0.063 | inactive: -0.045 | inactive: 0.025
MICB, A0A140T979 | inactive: 0.034 | inactive: 0.067 | inactive: 0.072 | inactive: -0.016 | inactive: -0.052 | inactive: 0.087 | inactive: 0 | inactive: -0.082 | inactive: -0.082 | inactive: -0.011 | inactive: 0.014 | inactive: 0.092 | inactive: -0.1 | inactive: 0.015 | inactive: -0.027 | inactive: 0.091 | inactive: 0.11 | inactive: -0.017 | inactive: -0.002 | inactive: 0.036
MRPL11 (UniProt Q9Y3B7) | inactive: -0.148 | inactive: -0.135 | inactive: -0.183 | inactive: 0.149 | inactive: -0.025 | inactive: -0.013 | inactive: 0.047 | inactive: 0.142 | inactive: 0.016 | inactive: -0.195 | inactive: -0.154 | inactive: 0.009 | inactive: 0.063 | inactive: 0.074 | inactive: 0.031 | inactive: -0.021 | inactive: 0.043 | inactive: 0.108 | inactive: 0.037 | inactive: -0.074
MKI67 (UniProt P46013) | inactive: 0.044 | inactive: 0.002 | inactive: -0.161 | inactive: -0.013 | inactive: -0.04 | inactive: 0.142 | inactive: 0 | inactive: 0.037 | inactive: -0.002 | inactive: 0.028 | inactive: -0.026 | inactive: -0.036 | inactive: -0.08 | inactive: 0.038 | inactive: 0.015 | inactive: -0.161 | inactive: -0.042 | inactive: 0.074 | inactive: 0.117 | inactive: 0.129
MMAB (UniProt Q96EY8) | inactive: 0 | inactive: 0.006 | inactive: 0.017 | inactive: -0.03 | inactive: 0.029 | inactive: -0.008 | inactive: -0.018 | inactive: -0.05 | inactive: 0.035 | inactive: 0.023 | inactive: 0.04 | inactive: 0.018 | inactive: 0.008 | inactive: -0.077 | inactive: -0.026 | inactive: -0.003 | inactive: 0 | inactive: -0.046 | inactive: 0.01 | inactive: -0.003
MPI (UniProt P34949) | inactive: 0.008 | inactive: -0.073 | inactive: 0.059 | inactive: 0.057 | inactive: 0.035 | inactive: -0.035 | inactive: 0.09 | inactive: 0.056 | inactive: 0.015 | inactive: 0.086 | inactive: 0.02 | inactive: -0.005 | inactive: -0.029 | inactive: 0.028 | inactive: -0.002 | inactive: 0.089 | inactive: -0.02 | inactive: -0.01 | inactive: 0.025 | inactive: -0.033
MRPL12 (UniProt P52815) | inactive: -0.068 | inactive: -0.06 | inactive: 0.179 | inactive: -0.005 | inactive: 0.036 | inactive: 0.095 | inactive: 0.018 | inactive: 0.068 | inactive: -0.071 | inactive: -0.101 | inactive: -0.046 | inactive: -0.016 | inactive: 0.001 | inactive: -0.049 | inactive: -0.081 | inactive: 0.014 | inactive: -0.027 | inactive: -0.054 | inactive: 0.002 | inactive: 0.221
MLEC (UniProt Q14165) | inactive: -0.033 | inactive: -0.009 | inactive: -0.031 | inactive: 0.018 | inactive: 0.039 | inactive: 0.01 | inactive: -0.013 | inactive: -0.002 | inactive: -0.004 | inactive: -0.008 | inactive: -0.003 | inactive: -0.03 | inactive: 0.027 | inactive: 0.011 | inactive: 0.013 | inactive: -0.04 | inactive: -0.003 | inactive: 0.02 | inactive: -0.007 | inactive: 0.014
MRPL14 (UniProt Q6P1L8) | inactive: -0.013 | inactive: 0.018 | inactive: 0.098 | inactive: -0.007 | inactive: -0.109 | inactive: 0.017 | inactive: -0.002 | inactive: 0.051 | inactive: -0.021 | inactive: -0.056 | inactive: 0.007 | inactive: -0.047 | inactive: -0.005 | inactive: -0.027 | inactive: -0.101 | inactive: -0.049 | inactive: 0.147 | inactive: -0.118 | inactive: -0.012 | inactive: 0.103
MRPL3 (UniProt P09001) | inactive: -0.169 | inactive: -0.12 | inactive: -0.168 | inactive: 0.099 | inactive: -0.056 | inactive: -0.034 | inactive: 0.017 | inactive: 0.124 | inactive: -0.001 | inactive: -0.212 | inactive: -0.077 | inactive: -0.023 | inactive: 0.059 | inactive: 0.06 | inactive: 0.015 | inactive: 0.025 | inactive: 0.253 | inactive: 0.12 | inactive: -0.009 | inactive: -0.048
MPC2 (UniProt O95563) | inactive: 0.021 | inactive: 0.016 | inactive: 0.079 | inactive: 0.011 | inactive: 0.011 | inactive: 0.03 | inactive: -0.005 | inactive: -0.019 | inactive: 0.009 | inactive: 0.047 | inactive: -0.008 | inactive: -0.037 | inactive: -0.004 | inactive: -0.011 | inactive: -0.005 | inactive: 0.006 | inactive: -0.025 | inactive: -0.06 | inactive: -0.01 | inactive: 0.012
MRPL34 (UniProt Q9BQ48) | inactive: -0.029 | inactive: -0.167 | inactive: -0.116 | inactive: 0.101 | inactive: -0.048 | inactive: -0.03 | inactive: 0.006 | inactive: 0.018 | inactive: -0.004 | inactive: -0.174 | inactive: -0.046 | inactive: 0.107 | inactive: 0.092 | inactive: 0.164 | inactive: 0.042 | inactive: -0.137 | inactive: 0.102 | inactive: 0.196 |  | active: -0.51
MIEN1 (UniProt Q9BRT3) | inactive: 0.023 | inactive: 0.048 | inactive: 0.046 | inactive: -0.02 | inactive: 0.033 | inactive: 0.099 | inactive: 0.035 | inactive: -0.065 | inactive: 0.024 | inactive: -0.076 | inactive: 0.105 | inactive: -0.029 | inactive: -0.051 | inactive: -0.075 | inactive: -0.091 | inactive: 0.074 | inactive: -0.036 | inactive: 0.019 |  | inactive: 0.045
MICOS13 (UniProt Q5XKP0) | inactive: 0.008 | inactive: 0.018 | inactive: 0.053 | inactive: -0.007 | inactive: 0.001 | inactive: 0.039 | inactive: 0.051 | inactive: 0.052 | inactive: 0.007 | inactive: 0.023 | inactive: 0.087 | inactive: -0.012 | inactive: -0.022 | inactive: -0.077 | inactive: -0.193 | inactive: -0.146 | inactive: 0.006 | inactive: -0.023 |  | inactive: -0.008
